This assay concerns BDF1 mice, P388 leukemia ip, median survival T/C. The assay is described as follows: NCI In Vivo Anticancer Drug Screen. Data for tumor model P388 Leukemia (intraperitoneal) in B6D2F1 (BDF1) mice. The note with it: T/C endpoint: median survival time, higher T/C = longer survival. The procedure, abridged: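 Each value expresses how treatment altered survival: treated-mouse outcome over vehicle-mouse outcome, both groups bearing the transplanted tumour.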

Setting [1] is: dose: 200.0 mg/kg/injection, schedule: Q01DX010 (ip), vehicle: saline.
Setting [2] is: dose: 200.0 mg/kg/injection, schedule: Q01DX009 (ip), vehicle: saline with Tween-80.
Where [3] appears, read: dose: 400.0 mg/kg/injection, schedule: Q04DX003 (ip), vehicle: saline with Tween-80.
Setting [4] is: dose: 100.0 mg/kg/injection, schedule: Q01DX009 (ip), vehicle: saline.

The list is a part of this screen's results and no random one: it is rich in T/C values a quarter to a half above the control, in often repeated tests (any T/C) and in doses without a T/C. Other doses and runs of a compound stand elsewhere. T/C gives the treated animals as a percentage of the vehicle group. Some entries give survivors of the animals treated and no T/C: the source files T/C as zero there, which appears to mark a toxic dose or a test without result, not a measured value. Some doses without a T/C left all or most animals alive at the check, yet need not have been tolerated: survival well below the control is almost never listed, so the zero probably covers shortened survival too. Counts of survivors are from the toxicity check (mostly the fifth day) where no day follows; animals may have died later. Schedules are NCI's codes, taken here to give the interval after Q, in days (D) or hours (H), and the number of doses after X. Some doses were run more than once; their values stand side by side, smallest first. Where survival is the endpoint, this PubChem deposit counts one and a half times the control or more as active, and values a quarter to a half above the control carry no call in these data; other NCI protocols may use other cut-offs.

For `CN(C)c1ccc(C2OC3(CCCCC3)C[N+]23CCCC3)cc1` (configuration not stated), the survivor count reads like this: (dose: 60.0 mg/kg/injection, schedule: Q01DX009 (ip), vehicle: saline) 6 of 6; (dose: 90.0 mg/kg/injection, schedule: Q01DX009 (ip), vehicle: saline) 5 of 6; (dose: 135.0 mg/kg/injection, schedule: Q01DX009 (ip), vehicle: saline) 2 of 6; (dose: 150.0 mg/kg/injection, schedule: Q04DX003 (ip), vehicle: Klucel (hydroxypropylcellulose) (HPC)) 5 of 6; (dose: 225.0 mg/kg/injection, schedule: Q04DX003 (ip), vehicle: Klucel (hydroxypropylcellulose) (HPC)) 2 of 6; (dose: 300.0 mg/kg/injection, schedule: Q01DX001 (ip), vehicle: Klucel (hydroxypropylcellulose) (HPC)) 1 of 6. For the same compound, the survivor count (dose: 335.0 mg/kg/injection, schedule: Q04DX003 (ip), vehicle: Klucel (hydroxypropylcellulose) (HPC)) was 0 of 6.
As for `CN=Cc1ccc([N+](=O)[O-])cc1`, under “dose: 400.0 mg/kg/injection, schedule: Q01DX001 (ip), vehicle: Klucel (hydroxypropylcellulose) (HPC)”, the survivor count is recorded as 6 of 6.
In the case of `CC(C)N1CCOCC1`, the survivor count runs as follows: (dose: 150.0 mg/kg/injection, schedule: Q01DX009 (ip), vehicle: saline) 0 of 6; (dose: 225.0 mg/kg/injection, schedule: Q01DX009 (ip), vehicle: saline) 0 of 6; (dose: 335.0 mg/kg/injection, schedule: Q01DX009 (ip), vehicle: saline) 0 of 6.
Consider `CN(C)/N=N/c1nc[nH]c1C(N)=O`, for which the survivor count by setting is: (dose: 44.0 mg/kg/injection, schedule: Q01DX009 (ip), vehicle: carboxymethylcellulose (CMC)) 10 of 10; (dose: 67.0 mg/kg/injection, schedule: Q01DX009 (ip), vehicle: carboxymethylcellulose (CMC)) 10 of 10; (dose: 100.0 mg/kg/injection, schedule: Q01DX009 (ip), vehicle: carboxymethylcellulose (CMC)) 10 of 10; (dose: 400.0 mg/kg/injection, schedule: Q01DX010 (ip), vehicle: saline) 0 of 6; (dose: 800.0 mg/kg/injection, schedule: Q01DX009 (ip), vehicle: Klucel (hydroxypropylcellulose) (HPC)) 1 of 10; (dose: 935.0 mg/kg/injection, schedule: Q01DX001 (ip), vehicle: carboxymethylcellulose (CMC)) 2 of 6. Also, the T/C is, setting by setting: (dose: 50.0 mg/kg/injection, schedule: Q01DX010 (ip), vehicle: saline) 129 % of control; under setting [1], 130 and 133 % of control; (dose: 418.0 mg/kg/injection, schedule: Q01DX001 (ip), vehicle: carboxymethylcellulose (CMC)) 127 % of control; (dose: 625.0 mg/kg/injection, schedule: Q01DX001 (ip), vehicle: carboxymethylcellulose (CMC), evaluated on day 5) 147 % of control; (dose: 625.0 mg/kg/injection, schedule: Q01DX001 (ip), vehicle: carboxymethylcellulose (CMC), evaluated on day 45) 148 % of control; (dose: 700.0 mg/kg/injection, schedule: Q01DX001 (ip), vehicle: carboxymethylcellulose (CMC)) 142 % of control.
Take `CCOC(=O)C(C(=O)OCC)=C(C)OCC`: the survivor count was 5 of 6 under setting [2] and 3 of 6 under setting [3].
For `Cc1ccc(NC(=O)Oc2ccc(Br)cc2Br)c([N+](=O)[O-])c1`, the T/C was 126 % of control (dose: 50.0 mg/kg/injection, schedule: Q01DX009 (ip), vehicle: saline with Tween-80); 126 % of control under setting [2]; 130 % of control (dose: 400.0 mg/kg/injection, schedule: Q01DX009 (ip), vehicle: saline with Tween-80).
With `N=C(N)SCc1ccc(C(=O)Oc2ccc([N+](=O)[O-])cc2)cc1`, the survivor count reads like this: under setting [4], 3 of 6; (dose: 200.0 mg/kg/injection, schedule: Q04DX003 (ip), vehicle: saline) 1 of 6 and 3 of 6; (dose: 400.0 mg/kg/injection, schedule: Q04DX003 (ip), vehicle: saline) 1 of 6. The T/C (dose: 100.0 mg/kg/injection, schedule: Q04DX003 (ip), vehicle: saline) is 127 % of control.
Turning to `Cc1ccc2ccccc2c1Cc1c(C=O)[nH]c(=S)[nH]c1=O`, the T/C under setting [3] was 127 % of control.
On to `Nc1c(Br)cc(Br)cc1Br`, for which the T/C (dose: 50.0 mg/kg/injection, schedule: Q01DX009 (ip), vehicle: Klucel (hydroxypropylcellulose) (HPC)) is 138 % of control.
With `COC(C)c1cnccc1C(C)c1cc2ccccc2[nH]1` (configuration not stated), under “dose: 400.0 mg/kg/injection, schedule: Q01DX001 (ip), vehicle: saline with Tween-80”, the survivor count is 0 of 6.
On to `CS(=O)(=O)OCC(O)C(O)C(O)C(O)COS(C)(=O)=O` (configuration not stated), for which the T/C was 129 % of control (dose: 100.0 mg/kg/injection, schedule: Q01DX010 (ip), vehicle: saline) and 145 % of control under setting [1].
For `CC(=O)Nc1ccc(Cl)cc1C(=O)c1ccc[nH]1`, under setting [4], the survivor count is recorded as 6 of 6.
As to `Cc1nc(Br)c2cnccn12`, the survivor count (dose: 50.0 mg/kg/injection, schedule: Q01DX009 (ip), vehicle: saline) is given as 2 of 6.
With `CC(C)CC(C(=O)NC1C(=O)NC(Cc2c[nH]c3ccccc23)C(=O)N/C=C\c2ccc(cc2)OC1C(C)C)N(C)C` (configuration not stated), the T/C (dose: 0.4 mg/kg/injection, schedule: Q01DX010 (ip), vehicle: alcohol) is 140 % of control.
Regarding `c1ccc([C@H]2CN3CCSC3=N2)cc1`, the survivor count (dose: 40.0 mg/kg/injection, schedule: Q01DX009 (ip), vehicle: saline) is 1 of 5 and 2 of 6.
In the case of `O=C(O)c1cc(Br)ccc1OCc1cccc(Cl)c1`, the survivor count by setting is: (dose: 200.0 mg/kg/injection, schedule: Q04DX003 (ip), vehicle: saline with Tween-80) 0 of 6; under setting [3], 0 of 6.
`COc1ccccc1CN1CCCN(Cc2ccccc2OC)C1c1ccc(N(CCCl)CCCl)cc1C`: under “dose: 150.0 mg/kg/injection, schedule: Q01DX009 (ip), vehicle: Klucel (hydroxypropylcellulose) (HPC)”, the T/C is 136 % of control.
In the case of `NNC(=O)c1ccc(Br)cc1`, the survivor count runs as follows: (dose: 200.0 mg/kg/injection, schedule: Q01DX009 (ip), vehicle: Klucel (hydroxypropylcellulose) (HPC)) 6 of 6; (dose: 400.0 mg/kg/injection, schedule: Q04DX003 (ip), vehicle: Klucel (hydroxypropylcellulose) (HPC)) 2 of 6.
`CCCc1cc(CCC)n2nc(N)nc2n1`: the survivor count under setting [2] is given as 3 of 6.
Turning to `CCCN1CCC2(CC1)COCc1ccccc12`, the survivor count (dose: 200.0 mg/kg/injection, schedule: Q04DX002 (ip), vehicle: saline with Tween-80) is recorded as 1 of 6.
As for `CCCCCCCCNC(=O)C1OC(n2cnc3c(N)ncnc32)C(O)C1O` (configuration not stated), the survivor count (dose: 400.0 mg/kg/injection, schedule: Q01DX009 (ip), vehicle: saline) is reported as 2 of 6.
Regarding `CCCCCCCCCCCCCCCC(=O)N1CCC(N2CCCCC2)CC1`, under “dose: 100.0 mg/kg/injection, schedule: Q01DX001 (ip), vehicle: Klucel (hydroxypropylcellulose) (HPC)”, the survivor count was 6 of 6.
As to `CCC1=C(c2cc(Cl)c3ccccc3c2OCC(=O)O)OC(CC)(C(=O)c2cc(Cl)c3ccccc3c2OCC(=O)O)CC1` (configuration not stated), the survivor count (dose: 100.0 mg/kg/injection, schedule: Q04DX003 (ip), vehicle: saline sonified) is given as 6 of 6.
Turning to `N#CC(=C=[N-])[n+]1ccccc1`, the survivor count (dose: 40.0 mg/kg/injection, schedule: Q01DX009 (ip), vehicle: Klucel (hydroxypropylcellulose) (HPC)) was 2 of 6.
Consider `COc1ccc(NC(=O)Oc2ccccc2Cc2ccccc2)cc1`, for which the survivor count (dose: 50.0 mg/kg/injection, schedule: Q04DX003 (ip), vehicle: Klucel (hydroxypropylcellulose) (HPC)) is 6 of 6.
On to `CC(CCC/C=C/CCCN(C)C(=N)N)CC(C)C1OC(=O)C(C)C(O)/C=C/C(C)C(O)C(C)C(O)C(C)C(O)CCCC(O)CC2(O)OC(CC(OC(=O)CC(=O)O)CC(O)CC(O)C(C)C(O)/C=C/C=C/C1C)CC(O)C2O` (configuration not stated), for which the survivor count reads like this: (dose: 10.0 mg/kg/injection, schedule: Q01DX009 (ip), vehicle: saline) 2 of 6; (dose: 16.0 mg/kg/injection, schedule: Q01DX009 (ip), vehicle: saline) 1 of 6; (dose: 16.0 mg/kg/injection, schedule: Q04DX003 (ip), vehicle: saline) 2 of 6; (dose: 24.0 mg/kg/injection, schedule: Q01DX009 (ip), vehicle: saline) 0 of 6.

Values taken from PubChem BioAssay AID328 (DTP/NCI, 2004).
